# Measured values reported in PubChem BioAssay AID256 (DTP/NCI, 2004).
# The list shows only some results of the screen, not a fair sample: it is rich in T/C values a quarter to a half above the control, in often repeated tests (any T/C) and in doses without a T/C. Further doses and runs are listed elsewhere. T/C is the treated group as % of the vehicle group. Some doses have a count of surviving animals in place of a T/C: the source holds a T/C of zero for them, seemingly a mark for toxic or unscored doses. Some survivor counts are full or nearly so, which does not show that the dose was tolerated: survival well below the control is almost never listed, so the zero probably covers shortened survival too. Survivors were counted at the toxicity check, usually on the fifth day, unless a day is given; later deaths do not show. Schedule codes are those of the source, read here as Q, the interval in days (D) or hours (H), X, the number of doses. Some doses were run more than once; their values stand side by side, smallest first. For survival time, the PubChem record calls one and a half times the control and up active, and a quarter to a half above the control has no call in these data; cut-offs in other NCI protocols can differ. Some T/C values carry the count of animals alive at the toxicity check (mostly the fifth day); where none is given, no animal had died by that day.
# Tested on: CD2F1 mice, L1210 leukemia ip, survival T/C
# Test: NCI In Vivo Anticancer Drug Screen. Data for tumor model L1210 Leukemia (intraperitoneal) in CD2F1 (CDF1) mice
# Details: higher T/C = longer survival
# Summary of the method: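 Antitumor effect is scored in animals hosting a serially transplanted tumor. Values compare compound-dosed animals against vehicle-only controls as a simple quotient.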
# [1] = T/C endpoint: mean survival time, dose: 50.0 mg/kg/injection, schedule: Q01DX009 (ip), vehicle: saline with Tween-80
# [2] = T/C endpoint: mean survival time, dose: 100.0 mg/kg/injection, schedule: Q01DX009 (ip), vehicle: saline with Tween-80
# [3] = T/C endpoint: mean survival time, dose: 200.0 mg/kg/injection, schedule: Q01DX009 (ip), vehicle: saline with Tween-80
# [4] = T/C endpoint: mean survival time, dose: 200.0 mg/kg/injection, schedule: Q01DX001 (ip), vehicle: saline
# [5] = T/C endpoint: mean survival time, dose: 400.0 mg/kg/injection, schedule: Q01DX001 (ip), vehicle: saline
# [6] = T/C endpoint: mean survival time, dose: 400.0 mg/kg/injection, schedule: Q01DX009 (ip), vehicle: saline with Tween-80
# [7] = T/C endpoint: mean survival time, dose: 6.25 mg/kg/injection, schedule: Q01DX009 (ip), vehicle: saline
# [8] = T/C endpoint: mean survival time, dose: 12.5 mg/kg/injection, schedule: Q01DX009 (ip), vehicle: saline
smiles,measurement,setting,value
CCCCCCCCCCCCCCCC[n+]1cccc(C(=O)NCO)c1,survivor count,[1],3 of 6
same,survivor count,[2],0 of 6
same,survivor count,"T/C endpoint: mean survival time, dose: 100.0 mg/kg/injection, schedule: Q04DX003 (ip), vehicle: saline with Tween-80",0 of 6
same,survivor count,[3],0 of 6
COc1cc2c(C(=O)O)cc(-c3ccc(Cl)cc3)nc2cc1Cl,survivor count,[4],2 of 6
same,survivor count,[5],0 of 6
CCCCSc1cc(C)nc2ccccc12,survivor count,"T/C endpoint: mean survival time, dose: 200.0 mg/kg/injection, schedule: Q04DX002 (ip), vehicle: saline with Tween-80",3 of 3
same,survivor count,"T/C endpoint: mean survival time, dose: 400.0 mg/kg/injection, schedule: Q04DX002 (ip), vehicle: saline with Tween-80",2 of 3
NC(=O)N/N=C1\CC2C=CCC12 (stereo not drawn),survivor count,[6],3 of 6
CCCCCCCCCCCCCCCCC(C(=O)O)C(O)(CC(=O)O)C(=O)O (stereo not drawn),survivor count,[2],0 of 6
same,survivor count,[3],0 of 6
CN(C=O)c1cc2c3c(c1)CCCN3CCC2,survivor count,[2],1 of 6
same,survivor count,[3],0 of 6
same,survivor count,"T/C endpoint: mean survival time, dose: 400.0 mg/kg/injection, schedule: Q01DX001 (ip), vehicle: saline with Tween-80",0 of 6
CC(C)S(=O)(=O)/C(Cl)=C(/Cl)C(Cl)=C(Cl)Cl,survivor count,[2],3 of 6
same,survivor count,[3],2 of 6
Nc1nc(N)c2c(n1)CCCC2,survivor count,[1],1 of 6
CCOC(=O)/C(C#N)=N\O,survivor count,[4],0 of 3
same,survivor count,[5],0 of 3
CCOC12CC3C4=CCOC5CC(=O)N6c7ccccc7C1(CCN2C4)C6C53 (stereo not drawn),survivor count,"T/C endpoint: mean survival time, dose: 80.0 mg/kg/injection, schedule: Q01DX001 (ip), vehicle: saline",0 of 6
O=S(O)C(=Nc1ccccc1)Nc1ccccc1,survivor count,[6],0 of 6
CCCCCCCCCCCCCCCC[N+]1(C)CCSCC1,T/C,"T/C endpoint: mean survival time, dose: 1.56 mg/kg/injection, schedule: Q01DX009 (ip), vehicle: saline","100, 101, 108, 122 % of control"
same,T/C,"T/C endpoint: mean survival time, dose: 3.13 mg/kg/injection, schedule: Q01DX009 (ip), vehicle: saline","90, 98, 98 [5 of 6 alive], 101, 102, 103, 114, 130 % of control"
same,T/C,[7],"96, 96 [5 of 6 alive], 98, 102, 107, 111 % of control"
same,survivor count,[7],1 of 3
same,T/C,[8],"98, 100 [4 of 6 alive], 100 % of control [5 of 6 alive]"
same,survivor count,[8],"0 of 6, 1 of 3, 2 of 3"
same,survivor count,"T/C endpoint: mean survival time, dose: 12.5 mg/kg/injection, schedule: Q04DX002 (ip), vehicle: saline",1 of 3 and 3 of 6
same,survivor count,"T/C endpoint: mean survival time, dose: 25.0 mg/kg/injection, schedule: Q01DX009 (ip), vehicle: saline",0 of 6
same,survivor count,"T/C endpoint: mean survival time, dose: 25.0 mg/kg/injection, schedule: Q04DX002 (ip), vehicle: saline",0 of 3
same,survivor count,"T/C endpoint: mean survival time, dose: 50.0 mg/kg/injection, schedule: Q04DX002 (ip), vehicle: saline",2 of 3 and 5 of 6
O=CC(CO)OC(C=O)n1ccc(=O)[nH]c1=O (stereo not drawn),T/C,"T/C endpoint: median survival time, dose: 100.0 mg/kg/injection, schedule: Q04DX003 (ip), vehicle: saline",134 % of control
NC(=O)CCC(N)C(=O)O.[Cl-].[Cl-].[Cl-].[Cl-].[Pt+2] (stereo not drawn),survivor count,"T/C endpoint: mean survival time, dose: 50.0 mg/kg/injection, schedule: Q01DX009 (ip), vehicle: water",4 of 6
same,survivor count,"T/C endpoint: mean survival time, dose: 100.0 mg/kg/injection, schedule: Q01DX009 (ip), vehicle: water",1 of 6
same,survivor count,"T/C endpoint: mean survival time, dose: 100.0 mg/kg/injection, schedule: Q04DX003 (ip), vehicle: saline",0 of 6
same,survivor count,"T/C endpoint: mean survival time, dose: 200.0 mg/kg/injection, schedule: Q01DX009 (ip), vehicle: water",1 of 6
same,survivor count,"T/C endpoint: mean survival time, dose: 200.0 mg/kg/injection, schedule: Q04DX003 (ip), vehicle: saline",0 of 6
same,survivor count,"T/C endpoint: mean survival time, dose: 400.0 mg/kg/injection, schedule: Q04DX003 (ip), vehicle: saline",0 of 6
